# Measured values taken from the supplement of paper PMC10398353.
# Values joined by “and” are separate entries in the source; they are usually repeats but may differ in a detail not shown here. Equal entries are not always repeated. Structures can show the parent of a compound that is named as a salt. This is one part of the list. This is a noisy data set.
# Tested on: Salmonella enterica serovar Typhimurium ST313 D23580
# Test: normalized bacterial growth (OD600 20 h minus 0 h, interquartile-mean normalized) (fraction of plate interquartile mean); higher = more bacterial growth (less inhibition)
# Conditions: LPM (pH 5.8, low phosphate, low Mg2+), concentration: 10 µM, temperature: 37 °C
row,SMILES,normalized bacterial growth
1,Cc1c(C(N)=O)cc([N+](=O)[O-])cc1[N+](=O)[O-],1.03
2,C=C[C@H]1CN2CC[C@H]1C[C@@H]2[C@@H](O)c1ccnc2ccc(OC)cc12,1.16 and 0.939
3,C=C[C@H]1CN2CC[C@H]1C[C@@H]2[C@@H](O)c1ccnc2ccc(OC)cc12 [Quinidine hydrochloride monohydrate],1.08
4,C=C[C@H]1CN2CC[C@H]1C[C@@H]2[C@@H](O)c1ccnc2ccc(OC)cc12 [Quinidine sulfate],0.838
5,CNC(=O)[C@H]1O[C@@H](n2cnc3c(NCc4cccc(I)c4)ncnc32)[C@H](O)[C@@H]1O,0.897
6,COc1ccc(C2C(=O)c3ccccc3C2=O)cc1,1.11
7,Cc1cccc(C)c1NC(=O)C1CCCCN1C (stereo not given),0.808
8,COc1cc(/C=C/C(=O)N2CCC=CC2=O)cc(OC)c1OC,0.876
9,CN(C)c1ccc2nc3ccc(=[N+](C)C)cc-3sc2c1,0.793
10,COc1cc(OC)c2c(OC)c(-c3ccc4c(c3)OCO4)c(=O)oc2c1,0.849
11,CC(=O)Oc1ccc2c(c1)CC[C@@H]1[C@@H]2CC[C@]2(C)[C@@H](OC(C)=O)CC[C@@H]12,0.837
12,Cc1ncc([N+](=O)[O-])n1CC(O)CCl (stereo not given),1.21
13,N#CC(=C(/N)Sc1ccccc1N)/C(C#N)=C(/N)Sc1ccccc1N,1.24
14,NS(=O)(=O)c1cccc2c1c([N+](=O)[O-])cc1nc(O)c(O)nc12 [NBQX disodium],1.11
15,CC(C)CCCC(C)C1CCC2C3CCC4CCCCC4(C)C3CCC12C (stereo not given),0.899
16,NC(N)=NCc1cccc(I)c1 [m-Iodobenzylguanidine hemisulfate],1.07
17,COc1cc2c(cc1OC)C(=O)C(CC1CCN(Cc3ccccc3)CC1)C2 (stereo not given),1.25
18,CCCCC(CC)CN1CN(CC(CC)CCCC)CC(C)(N)C1 (stereo not given) [Hexetidine],0.64
19,O=C(CCCN1CCC(O)(c2ccc(Br)cc2)CC1)c1ccc(F)cc1,0.988
20,CNCC[C@H](Oc1cccc2ccccc12)c1cccs1,1.04
21,CC1CCC(C(C)C)C(O)C1 (stereo not given),1.27
22,CO[C@@]1(NC(=O)Cc2cccs2)C(=O)N2C(C(=O)O)=C(COC(N)=O)CS[C@@H]21,1.4
23,COc1cc(Cc2cnc(N)nc2N)cc(OC)c1OC [Trimethoprim],1.21
24,NC(=O)C(=O)O [Sodium Oxamate],1.13
25,COc1cc(O)c(C(=O)/C=C/c2ccccc2)c(O)c1,1.24
26,"FC(F)(F)c1cc(COC2CCCNC2c2ccccc2)cc(C(F)(F)F)c1 [""L-733,060 hydrochloride""]",0.868
27,C=CCc1ccc(OC(=O)c2ccccc2)c(OC)c1,0.434

row,SMILES,normalized bacterial growth
1,COCC1=C(C(=O)OC(C)OC(=O)OC(C)C)N2C(=O)[C@@H](NC(=O)/C(=N\OC)c3csc(N)n3)[C@H]2SC1 (stereo not given in full),0.988
2,CN(C)c1cc2c(Nc3ccc4c(cnn4Cc4ccccc4)c3)ncnc2cn1,0.668
3,CCN(CC)CCOC(=O)C(c1ccccc1)C1CCCCC1 (stereo not given),0.774
4,Nc1ccc(-c2ccc3ccccc3n2)cc1 [BF-170 hydrochloride],0.973
5,CC[C@H]1OC(=O)[C@H](C)[C@@H](O[C@H]2C[C@@](C)(OC)[C@@H](O)[C@H](C)O2)[C@H](C)[C@@H](O[C@@H]2O[C@H](C)C[C@H](N(C)C)[C@H]2O)[C@](C)(OC)C[C@@H](C)C(=O)[C@H](C)[C@@H](O)[C@]1(C)O,0.77
6,C[C@H]1COC2=C1C(=O)C(=O)c1c2ccc2c1CCCC2(C)C,1.21
7,CC(=O)SCC[N+](C)(C)C [Acetylthiocholine chloride],0.979
8,O=C(Nc1nc2ccccc2n1CCN1CCOCC1)c1cccc([N+](=O)[O-])c1 [IRAK-1/4 Inhibitor I],1.05
9,CCCCC1=NC2(CCCC2)C(=O)N1Cc1ccc(-c2ccccc2-c2nnn[nH]2)cc1,0.805
10,CC(C)COC(=O)OCN1C(=O)CN(CCN2CC(=O)N(COC(=O)OCC(C)C)C(=O)C2)CC1=O [Sobuzoxane],0.916
11,CCCCC[C@H](O)/C=C/[C@H]1C=CC(=O)[C@@H]1CCCCCCC(=O)O,0.84
12,CCCCOC(=O)c1ccc(N)cc1,0.893
13,O=C(Nc1ccc(C(=O)O)c(O)c1)c1ccccc1,1.12
14,O=[N+]([O-])c1cccc2c(Br)[nH]nc12 [3-Bromo-7-nitroindazole],1
15,NC1(C(=O)O)CCC1,1.22
16,N=C(N)NC(=O)c1nc(Cl)c(N)nc1N [Amiloride hydrochloride dihydrate],0.981
17,N=C(N)NC(=O)c1nc(Cl)c(N)nc1N [Amiloride hydrochloride],1.1
18,O=C(O)CCC(=O)N1CCC[C@H]1C(=O)O [N-Succinyl-L-proline],0.495
19,CC(=O)O[C@H]1CC[C@]2(C)C(C[C@@H](OC(C)=O)[C@]3(C)C4=CC(=O)O[C@H](c5ccoc5)[C@@]4(C)CCC23)C1(C)C (stereo partly drawn) [3-DEOXO-3beta-ACETOXYDEOXYDIHYDROGEDUNIN],0.875
20,COc1cccc(OC)c1OCCNCC1COc2ccccc2O1 (stereo not given) [WB-4101 hydrochloride],1
21,O=C1NCN(c2ccccc2)C12CCN(CCCC(c1ccc(F)cc1)c1ccc(F)cc1)CC2 [Fluspirilene],0.76
22,CCOc1ccc(C(=O)c2ccc(OC)c(O)c2O)cc1,1.09
23,Cc1cc(C2CCCCC2)n(O)c(=O)c1,0.225
24,C=C1CC/C=C(/C)CC[C@@H]2[C@@H]1CC2(C)C,0.959
25,O=C(O)c1cc2cc(Cl)ccc2[nH]1,1.26
26,O=C(O)c1cc(=O)c2ccccc2o1,0.966
27,CC(=O)CC(=O)CCC(=O)O,0.941

# Shown tab-delimited: entries from further up
row	SMILES	normalized bacterial growth
11	CCCCC[C@H](O)/C=C/[C@H]1C=CC(=O)[C@@H]1CCCCCCC(=O)O	0.84
12	CCCCOC(=O)c1ccc(N)cc1	0.893
13	O=C(Nc1ccc(C(=O)O)c(O)c1)c1ccccc1	1.12
14	O=[N+]([O-])c1cccc2c(Br)[nH]nc12 [3-Bromo-7-nitroindazole]	1
15	NC1(C(=O)O)CCC1	1.22

# Taken from the results shown (two entries):
row,SMILES,normalized bacterial growth
4,C=C[C@H]1CN2CC[C@H]1C[C@@H]2[C@@H](O)c1ccnc2ccc(OC)cc12 [Quinidine sulfate],0.838
5,CNC(=O)[C@H]1O[C@@H](n2cnc3c(NCc4cccc(I)c4)ncnc32)[C@H](O)[C@@H]1O,0.897

# Carrying on:

row,SMILES,normalized bacterial growth
1,COc1ccc2oc(-c3ccccc3)c(OC)c(=O)c2c1,1.05
2,COc1ccc2ccc(=O)oc2c1,1.17
3,NC(=S)c1ccc[n+]([C@@H]2O[C@@H](COP(=O)([O-])OP(=O)(O)OC[C@H]3O[C@@H](n4cnc5c(N)ncnc54)C(OP(=O)(O)O)[C@H]3O)C(O)C2O)c1 (stereo not given in full) [Thio-NADP sodium],0.789
4,NS(=O)(=O)c1cc(C(=O)O)c(NCc2ccco2)cc1Cl,1.2
5,NS(=O)(=O)c1cc(C(=O)O)c(NCc2ccco2)cc1Cl [Furosemide],1.23
6,CC(=O)Oc1cc(C)c2c(c1C(OC(C)=O)OC(C)=O)Oc1c(c(C)c(OC(C)=O)c3c1C(OC(C)=O)OC3=O)OC2=O (stereo not given),0.988
7,CCC(CCC(C)C1CCC2C3CCC4CC(O)CCC4(C)C3CCC12C)C(C)C (stereo not given),1.12
8,NC(=O)c1ncn([C@@H]2O[C@H](CO)[C@@H](O)[C@H]2O)n1 [Ribavirin],1.28
9,CCOc1ccc2c(c1)C(C)=CC(C)(C)N2 [Ethoxyquin],0.906
10,CCOC(=O)[C@H](CCc1ccccc1)N[C@@H](C)C(=O)N1[C@H](C(=O)O)C[C@@H]2CCC[C@@H]21,1.05
11,CC1=CC2C(C(C)C)CCC(C)(O)C2CC1 (stereo not given),1.32
12,"Cn1c(=O)c2[nH]c(C3CCCC3)nc2n(C)c1=O [""8-Cyclopentyl-1,3-dimethylxanthine""]",1.16
13,C=NC(C(=O)NC1C(=O)N2C1SC(C)(C)C2C(=O)O)c1ccccc1 (stereo not given),0.88
14,CC(C)COCC(CN(Cc1ccccc1)c1ccccc1)N1CCCC1 (stereo not given) [Bepridil hydrochloride],0.568
15,NS(=O)(=O)c1cc2c(cc1Cl)N=CNS2(=O)=O [Chlorothiazide],1.05
16,CNS(=O)(=O)Cc1ccc2[nH]cc(CCN(C)C)c2c1,0.407
17,O=c1c(O)c(-c2ccc(O)c(O)c2)oc2cc(O)ccc12,0.824
18,C[C@H](N)C(=O)NC(Cc1ccccc1)C(=O)O (mixture of isomers),1.01
19,CN[C@H](CC(C)C)C(=O)N[C@H]1C(=O)N[C@@H](CC(N)=O)C(=O)N[C@H]2C(=O)N[C@H]3C(=O)N[C@H](C(=O)N[C@H](C(=O)O)c4cc(O)cc(O)c4-c4cc3ccc4O)[C@H](O)c3ccc(c(Cl)c3)Oc3cc2cc(c3O[C@@H]2O[C@H](CO)[C@@H](O)[C@H](O)[C@H]2O[C@H]2C[C@](C)(N)[C@H](O)[C@H](C)O2)Oc2ccc(cc2Cl)[C@H]1O,1.11
20,CN[C@H](CC(C)C)C(=O)N[C@H]1C(=O)N[C@@H](CC(N)=O)C(=O)N[C@H]2C(=O)N[C@H]3C(=O)N[C@H](C(=O)N[C@H](C(=O)O)c4cc(O)cc(O)c4-c4cc3ccc4O)[C@H](O)c3ccc(c(Cl)c3)Oc3cc2cc(c3O[C@@H]2O[C@H](CO)[C@@H](O)[C@H](O)[C@H]2O[C@H]2C[C@](C)(N)[C@H](O)[C@H](C)O2)Oc2ccc(cc2Cl)[C@H]1O [Vancomycin hydrochloride],1.42
21,CN[C@H](CC(C)C)C(=O)N[C@H]1C(=O)N[C@@H](CC(N)=O)C(=O)N[C@H]2C(=O)N[C@H]3C(=O)N[C@H](C(=O)N[C@H](C(=O)O)c4cc(O)cc(O)c4-c4cc3ccc4O)[C@H](O)c3ccc(c(Cl)c3)Oc3cc2cc(c3O[C@@H]2O[C@H](CO)[C@@H](O)[C@H](O)[C@H]2O[C@H]2C[C@](C)(N)[C@H](O)[C@H](C)O2)Oc2ccc(cc2Cl)[C@H]1O [Vancomycin hydrochloride from Streptomyces orientalis],1.13
22,COc1cccc(C(=O)NCCN2CCN(c3ccc(Cl)cc3)CC2)c1,0.804
23,C=C(C)[C@@H]1CC=C(CO)CC1,1.06
24,COC1=C(OC)C(=O)C(C/C=C(\C)CC/C=C(\C)CC/C=C(\C)CC/C=C(/C)CC/C=C(\C)CC/C=C(\C)CC/C=C(\C)CC/C=C(\C)CC/C=C(\C)CCC=C(C)C)=C(C)C1=O,1.02
25,"c1ccc(CNc2ncnc3nc[nH]c23)cc1 [""Aminopurine, 6-benzyl""]",0.947
26,CN1Cc2c(N)cccc2C(c2ccccc2)C1 (stereo not given) [Nomifensine maleate],1.04
